Series [1] in a line: HR-ESI-MS peptide–zinc interaction. The note with it: 10^–6 M peptide, 100-fold excess Zn^2+, 2 h, 37 °C. Format: binding.
Series [2] in a line: potentiometric titration, Zn^2+ complex stability constants. Format: binding. The procedure: Potentiometric measurements were carried out to give insight into the coordination environment of Zn^2+ bound to the d-bdnf peptide (Figure S5). […] The four protonation equilibria of the aspartic and glutamic residues partly overlap but, in agreement with the literature data, the aspartic β-carboxylic group is more acidic than glutamic γ-carboxylic one.[48] The potentiometric titrations were carried out exploring 0.9:1 and 2.2:1 metal to ligand molar ratio. […] The peptide forms two complex species, [ZnLH] and [ZnL]. The first one is the predominant at pH = 6, and the calculated stability constant value [logK(111) = logβ(111) – logK(011) = 5.71] indicates the involvement of three nitrogen atoms in the metal coordination environment. The [ZnL] species display a stability constant value, logβ = 7.15, higher than that of protonated species indicative of the involvement of a further nitrogen atom in the metal binding mode. In this complex species, Zn^2+ is bound to four nitrogen atoms with the involvement of two amino and two imidazole (2NH2,2NIm coordination mode). […]
Potentiometric measurements
Potentiometric titrations were carried out on a Titrando 905 automatic, using a combined glass-Ag/AgCl electrode (Metrohm, Switzerland). Solutions (2.0 mL) were thermostated at 298 K and in argon atmosphere. The ionic strength was 0.1 M in KNO3. A 0.1 M solution of KOH was used to titrate solutions containing either the peptides only (protonation constants) or the peptides with Zn2+ (complexation constants). The peptide concentrations range used was 1-2 mM in both series of experiments. At least three independent titrations were performed. Starting pH value was adjusted to 2.4 by adding HNO3 0.2 M. The titrations were carried out up to pH 8.5. Metal ion/ligand ratios between 0.9:1 and 2.2:1 were employed. To avoid systematic errors and verify reproducibility, the EMF values of each experiment were recorded at different time intervals. The data were analyzed by […]
using HYPERQUAD 2003 program 17. […]

As for “HSDPARRGELSV-NH2 [m-bdnf, linear peptide fragment encompassing the first 12 amino acids of the mature NT N-terminal]”, in series [1], the “Zn^2+ binding stoichiometry” value is reported as “coordinate one metal center”.
For the substance “HSDPARRGELSVC-C-VSLEGRRAPDSH (disulfide) [d-bdnf]”, the “Zn^2+ binding stoichiometry” value in series [1] was “coordinate one metal center”. Moreover, in series [2] (0.9:1 and 2.2:1 metal to ligand, only mononuclear species), the “number of zinc ions bound” value is “able to bind one zinc ion”. The “logK(111) = logβ(111) – logK(011)” value in series [2] ([ZnLH], 298 K, 0.1 M KNO3) is listed as 5.71. In addition, the “logβ of [ZnL]” value in series [2] ([ZnL], 2NH2,2NIm, 298 K, 0.1 M KNO3) came to 7.15.

The values are drawn from article PMC9732821, “Neurotrophic Activity and Its Modulation by Zinc Ion of a Dimeric Peptide Mimicking the Brain-Derived Neurotrophic Factor N-Terminal Region” (ACS Chemical Neuroscience, 2022).
